PubChem BioAssay AID504793 – Drosophila RNAi Screening Center | 2011
The screen tested about 23,000 reagents; this is a random part of those that have a named target and a result. In the full data, 62 (0.27%) were called active. 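Calls come from follow-up tests whose scores are not deposited, so confirmed genes may have low counts here; counts are not normalised per plate.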 Raw values vary from plate to plate and are shown uncorrected. The numbers tell different reagents against one gene apart. A plus sign joins genes that one reagent is predicted to hit.

- Aim: 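Genes required for cells to halt at G2/M after double-strand DNA breaks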 (primary screen)
- Cells: Drosophila S2R+ cells
- Knock-down reagent: long dsRNA against Drosophila genes, about 0.25 µg dsRNA per well
- Duration: 4 days of dsRNA, then 4 hours of drug before read-out
- Treatment: doxorubicin 0.5 µM for 4 hours to cause double-strand breaks, in cells also given a low, harmless dose of dsRNA against nbs to sensitise the assay
- Detection: 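Per-well count of mitotic cells stained for phospho-histone H3 after doxorubicin exposure, used as mitotic index; counts are raw and not normalised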
- Reading the numbers: mitotic cells: higher = more cells in mitosis, weaker G2 arrest
- Hit rule: 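a call needs confirmation in secondary tests, with other dsRNAs and a check of mitotic timing without damage, not just a high primary count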
- Meaning of the calls: active = confirmed in follow-up tests; inactive = not confirmed

mitotic cells, replicate 1 | mitotic cells, replicate 2 | outcome | gene | reagent no.
7 | – | inactive | CG14315 (GeneID 42164) | 1
2 | – | inactive | ex (GeneID 33218) | 1
4 | – | inactive | ex (GeneID 33218) | 2
– | – | inactive | CG14333 (retired record) (GeneID 42088) | 1
10 | – | inactive | CG14333 (retired record) (GeneID 42088) | 2
7 | – | inactive | CG14333 (retired record) (GeneID 42088) | 3
7 | – | inactive | CG14333 (retired record) (GeneID 42088) | 4
3 | – | inactive | arx (GeneID 40061) | 1
2 | – | inactive | Lamtor1 (GeneID 40193) | 1
11 | – | inactive | CG11155 (GeneID 43822) | 1
5 | – | inactive | CG11155 (GeneID 43822) | 2
150 | – | inactive | CCT6 (GeneID 32518) | 1
7 | – | inactive | CG7179 (GeneID 34059) | 1
6 | – | inactive | Shawl (GeneID 5740840) | 1
5 | – | inactive | Shawl (GeneID 5740840) | 2
6 | – | inactive | Shawl (GeneID 5740840) | 3
11 | – | inactive | CG9101 (GeneID 32452) | 1
7 | – | inactive | CG9101 (GeneID 32452) | 2
3 | – | inactive | Hers (GeneID 33000) | 1
4 | – | inactive | Hers (GeneID 33000) | 2
6 | – | inactive | Hers (GeneID 33000) | 3
6 | – | inactive | Acer (GeneID 34189) | 1
8 | – | inactive | CG14739 (GeneID 41467) | 1
11 | – | inactive | CG11134 (GeneID 32334) | 1
6 | – | inactive | Muc96D (GeneID 318737) | 1
9 | – | inactive | Muc96D (GeneID 318737) | 2
17 | – | inactive | Srp14 (GeneID 42436) | 1
6 | – | inactive | CG17985 (GeneID 35702) | 1
21 | – | inactive | CG32170 (GeneID 317894) | 1
7 | – | inactive | CG7741 (GeneID 36208) | 1
9 | – | inactive | spz5 (GeneID 38350) | 1

Sorted by “mitotic cells, replicate 1” (low to high): some entries from above.
mitotic cells, replicate 1 | mitotic cells, replicate 2 | outcome | gene | reagent no.
2 | – | inactive | Lamtor1 (GeneID 40193) | 1
3 | – | inactive | arx (GeneID 40061) | 1
5 | – | inactive | CG11155 (GeneID 43822) | 2
5 | – | inactive | Shawl (GeneID 5740840) | 2
6 | – | inactive | Shawl (GeneID 5740840) | 1
7 | – | inactive | CG14333 (retired record) (GeneID 42088) | 3
7 | – | inactive | CG14333 (retired record) (GeneID 42088) | 4
7 | – | inactive | CG7179 (GeneID 34059) | 1
10 | – | inactive | CG14333 (retired record) (GeneID 42088) | 2
11 | – | inactive | CG11155 (GeneID 43822) | 1
150 | – | inactive | CCT6 (GeneID 32518) | 1

More reagents follow:
mitotic cells, replicate 1 | mitotic cells, replicate 2 | outcome | gene | reagent no.
4 | – | inactive | CG34266 (GeneID 5740465) | 1
6 | – | inactive | osp (GeneID 34850) | 1
2 | – | inactive | osp (GeneID 34850) | 2
17 | – | inactive | Cyp4d1 (GeneID 31188) | 1
17 | – | inactive | Cyp4d1 (GeneID 31188) | 2
4 | – | inactive | Cyp4d1 (GeneID 31188) | 3
3 | – | inactive | CG15414 (GeneID 33570) | 1
4 | – | inactive | CG15414 (GeneID 33570) | 2
10 | – | inactive | CG15414 (GeneID 33570) | 3
7 | – | inactive | Cog7 (GeneID 43547) | 1
6 | – | inactive | sfl (GeneID 38736) | 1
6 | – | inactive | sfl (GeneID 38736) | 2
11 | – | inactive | sfl (GeneID 38736) | 3
2 | – | inactive | Sp1 (GeneID 31913) | 1
8 | – | inactive | Sp1 (GeneID 31913) | 2
12 | – | inactive | Sp1 (GeneID 31913) | 3
13 | – | inactive | CG8858 (GeneID 36319) | 1
7 | – | inactive | Hydr2 (GeneID 33532) | 1
12 | – | inactive | CG14777 (GeneID 31099) | 1
5 | – | inactive | EMC3 (GeneID 34479) | 1
4 | – | inactive | EMC3 (GeneID 34479) | 2
5 | – | inactive | Hel25E (GeneID 33781) | 1
4 | – | inactive | Hel25E (GeneID 33781) | 2
7 | – | inactive | Obp57e (GeneID 326110) | 1
6 | – | inactive | CG31921 (GeneID 319027) | 1
8 | – | inactive | CG9498 (GeneID 33885) | 1
9 | – | inactive | CkIIalpha (GeneID 48448) | 1
9 | – | inactive | anchor (GeneID 39965) | 1
5 | – | inactive | Su(var)3-9 (GeneID 41483) | 1
3 | – | inactive | Su(var)3-9 (GeneID 41483) | 2
4 | – | inactive | CG10467 + CG10469 | 1
6 | 13 | inactive | alpha-Cat (GeneID 40517) | 1
13 | – | inactive | Inx7 (GeneID 33027) | 1
8 | – | inactive | Inx7 (GeneID 33027) | 2
5 | – | inactive | CG10809 (GeneID 39159) | 1
3 | – | inactive | CG10809 (GeneID 39159) | 2
12 | – | inactive | Xport-A + Xport-B | 1
7 | – | inactive | mthl2 (GeneID 38636) | 1
10 | – | inactive | mthl2 (GeneID 38636) | 2
8 | – | inactive | Dhdds (GeneID 31708) | 1
6 | – | inactive | Dhdds (GeneID 31708) | 2
3 | – | inactive | Nup93-2 (GeneID 41804) | 1
6 | – | inactive | CG18547 (GeneID 41452) | 1
6 | – | inactive | Tre1 (GeneID 140439) | 1
5 | – | inactive | Tre1 (GeneID 140439) | 2
